# Screening data, single-dose tests

Protein sequences, listed by entry. Tags and fused reporters are not part of them. Residues count along the entry.
UniProt P9WNZ1, whole entry: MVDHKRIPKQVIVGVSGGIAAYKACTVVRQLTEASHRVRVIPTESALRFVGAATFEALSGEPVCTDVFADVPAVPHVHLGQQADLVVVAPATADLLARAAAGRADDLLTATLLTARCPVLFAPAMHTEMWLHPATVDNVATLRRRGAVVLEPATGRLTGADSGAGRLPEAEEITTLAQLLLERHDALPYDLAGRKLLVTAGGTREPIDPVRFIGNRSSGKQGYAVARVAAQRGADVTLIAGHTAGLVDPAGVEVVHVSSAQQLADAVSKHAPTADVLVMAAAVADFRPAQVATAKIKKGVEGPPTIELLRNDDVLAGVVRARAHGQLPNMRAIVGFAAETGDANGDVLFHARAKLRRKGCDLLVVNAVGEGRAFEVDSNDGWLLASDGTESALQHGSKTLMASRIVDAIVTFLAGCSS
UniProt Q4DA54, 1-478: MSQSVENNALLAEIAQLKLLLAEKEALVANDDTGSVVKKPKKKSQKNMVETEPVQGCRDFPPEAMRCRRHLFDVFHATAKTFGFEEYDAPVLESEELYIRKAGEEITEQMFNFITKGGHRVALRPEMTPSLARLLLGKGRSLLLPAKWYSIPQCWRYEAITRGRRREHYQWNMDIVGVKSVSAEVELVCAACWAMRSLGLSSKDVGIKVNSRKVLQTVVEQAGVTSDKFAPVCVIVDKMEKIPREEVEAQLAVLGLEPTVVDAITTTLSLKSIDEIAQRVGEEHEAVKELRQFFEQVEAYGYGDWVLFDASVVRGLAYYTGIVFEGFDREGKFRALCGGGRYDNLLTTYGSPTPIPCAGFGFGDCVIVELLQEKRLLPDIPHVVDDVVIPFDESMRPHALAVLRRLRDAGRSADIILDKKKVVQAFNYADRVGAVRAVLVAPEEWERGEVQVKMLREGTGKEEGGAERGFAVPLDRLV

From ChEMBL document CHEMBL3988442, “University of Dundee, Small-Polar-MMV Screening Library” (2021).

A: 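Coenzyme A biosynthesis protein CoaBC, Mycobacterium tuberculosis (UniProt P9WNZ1). Enzyme assay of CoaBC with a phosphate dye (Biomol Green) read at 650 nm. Compounds at 30 µM. Higher reads as stronger inhibition, judged from the few compounds that gave an IC50. Most strong results did not repeat in a second test. About 67,000 compounds were tested under these conditions; 0.06% (about 40) showed 50% or more at least once.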
B: 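Enzyme assay of histidyl-tRNA synthetase; the read-out is not stated. Target: Histidine-tRNA ligase, Trypanosoma cruzi CL Brener (UniProt Q4DA54). Compounds at 30 µM. The record gives no direction; compounds that gave an IC50 in retests scored well above the rest, so higher reads as stronger inhibition. Of about 69,000 compounds tested this way, about 31 (0.045%) reached 50% or more in at least one test.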

The filed quantity is “Percent Effect” (%).
The controls that fix the scale are not given in the record; negative values are as filed.
Compounds were drawn at random from those tested, without regard to their results.
A dash means the value is not listed here; it may have been measured.

| compound | A | B |
|---|---|---|
| `Cn1cccc(NC(=O)NCCc2cccc(O)c2)c1=O` | 0.122% | -0.6024% |
| `CCc1cnc(N)nc1NC(C)c1cnn(C)c1` (centres unmarked) | 1.942% | 2.762% |
| `O=C(C1CCCO1)N1CCc2onc(-c3ccc(Cl)cc3)c2C1` (centres unmarked) | 6.7% | 9.827% |
| `O=C(CSc1nncs1)N1CCN(Cc2ccc(Cl)s2)CC1` | -19.4% | 2.479% |
| `COc1c(CNC2CCN(C(=O)C(C)C)CC2)c(C(C)C)nn1C` | 0.894% | 5.202% |
| `CC(C)N1CCCCC1c1nc(N(C)C)ncc1I` (centres unmarked) | -1.942% | 0.3831% |
| `Cc1nc(C)n(C2CCCN(C(=O)COc3cccc(C#N)c3)C2)n1` (centres unmarked) | 3.742% | 3.448% |
| `Cc1c(CN2CCc3[nH]cnc3C2C2CC2)[nH]c2ccc(F)cc12` (centres unmarked) | 5.109% | 15.15% |
| `CN(C)c1ccc(C(=O)N2CCCN(Cc3cscn3)CC2)nn1` | -4.021% | 5.413% |
| `CC(C)(C)c1ncc(C(=O)NCc2ccccc2CN2CCCC2)s1` | -21.84% | 14.92% |
| `COCCC(=O)N1CCCC1c1csc(Nc2ccccn2)n1` (centres unmarked) | -41.26% | 5.495% |
| `Cc1nc(-c2ccco2)ccc1C(=O)N1CCc2nnc(N)cc2C1` | 17.74% | 12.85% |
| `O=C(Nc1cnn(-c2ccccc2Cl)c1)NC1CCC(O)CC1` (centres unmarked) | 4.509% | 1.754% |
| `COCCN1CCC2(CCN(Cc3ccc(OC)cc3)CC2)C1=O` | 8.108% | 3.883% |
| `O=C(Nc1cc(CCC2CCN(CCO)CC2)ccn1)c1ccccn1` | -0.5256% | 0.7576% |
| `CCOc1cc(C(=O)NS(C)(=O)=O)cc(-c2ccccc2)c1OC` | 1.927% | 3.665% |
| `COc1cccc(COCC(=O)N2CCCC2Cn2cccn2)c1` (centres unmarked) | 1.305% | 2.041% |
| `Cn1cccc1C(=O)N1CCCN(CCCc2ccccc2)CC1` | -27.31% | 9.091% |
| `COc1c(CNCC(=O)N2CCN(C)CC2)c(C(C)C)nn1C` | 8.091% | -22.11% |
| `CN(C)CCCNC(=O)c1ccnc(OCc2ccccc2)c1` | -39.5% | -5.556% |
| `CC(C)(C)n1ncc2c(=O)n(CC(=O)NCCc3ccccc3)cnc21` | 3.594% | 5.155% |
| `COc1ccc(S(=O)(=O)N2Cc3c(CN(C)C)nn(C)c3C2)cc1` | -14.11% | 5.376% |
| `Nc1nnc(CCCn2nnc(-c3ccccc3F)n2)s1` | 1.272% | 0.8772% |
| `CCOc1ncc(NC(=O)c2ccccn2)c(OCC)n1` | -3.171% | 3.093% |
| `O=C(COc1ccc(F)cc1F)N1CCOCC(O)(CN2CCCC2)C1` (centres unmarked) | 4.906% | 0.8929% |
| `O=c1cc(Cn2ccnc2)nc2n1CCCN(Cc1cccs1)C2` | 8.271% | -1.22% |
| `Cc1cc(=O)c(C(=O)N(C)Cc2ccc(Cl)c(F)c2)c[nH]1` | -5.03% | 1.685% |
| `OCCN1CCC(c2csc(Nc3cnccn3)n2)CC1` | 4.566% | 0.2857% |
| `COCCCC1CCCN(Cc2c(C)ccc3ncccc23)C1` (centres unmarked) | 2.584% | 0.5291% |
| `COc1ccccc1OC1CCN(C(=O)c2c[nH]c(=O)[nH]c2=O)CC1` | 8.678% | 9.827% |
| `CCCN1CCC(CC(=O)NCc2cc(O)ncn2)CC1` | 4.785% | 6.173% |
| `CC(=O)N1CCCC(c2nnc3n2CCN(C(=O)C2CCCCC2)C3)C1` (centres unmarked) | -1.051% | 0.7576% |
| `CCn1ccnc1CN1CCCN(C(=O)c2cc(Cl)c[nH]2)CC1` | 3.627% | 0% |
| `CNC(=O)c1ccc(CNCc2ccc(SC)c(OC)c2)cc1` | -2.415% | 7.097% |
| `c1coc(-c2nc(CN3CCCC(Cn4cncn4)C3)cs2)c1` (centres unmarked) | -1.746% | 11.34% |
| `COC(=O)c1cc(NC(=O)CCc2cscn2)ccc1C` | 7.826% | 9.091% |
| `COCCOc1ccc(CNc2cnc3ccccc3n2)cn1` | 4.793% | 11% |
| `Cc1ccc2c(c1)CN(C(=O)c1cnc(C)cn1)C(CN(C)C)CO2` (centres unmarked) | -2.206% | 2.128% |
| `COc1ccc2nc(C3CC3)cc(C(=O)NCc3ncnn3C)c2c1` | - | 8.28% |
| `CN(C)CCN(C)c1ccc(-c2nc(COc3ccccc3)no2)cn1` | -37.8% | -28.57% |
| `COCc1nc(CNC(=O)C(C)n2ccnc2C(C)C)no1` (centres unmarked) | -2.36% | 2.899% |
| `CCSc1cc(C(=O)NCCC(=O)Nc2ccccn2)ccn1` | -3.198% | 2.479% |
| `CCCn1cnc2c1CN(S(=O)(=O)c1ccc(F)cc1)[C@H](C(=O)OC)C2` | -8.055% | -6.468% |
| `Fc1ccc(OCCCNC2=NCCN2)cc1` | 0.9709% | 10.05% |
| `O=C(NC1CCC(C(=O)N2CCSCC2)CC1)N1CCOCC1` (centres unmarked) | 5.968% | 8.929% |
| `CCO[C@H]1C[C@@H](O)C12CCN(C(=O)CCN1CCCC1=O)CC2` | 4.545% | -0.8% |
| `COCC(C)(O)CNC(=O)c1cc(-c2ccc(F)cc2)nn1C` (centres unmarked) | -7.356% | 1.587% |
| `COCCN1C(=O)CO[C@H]2CN(Cc3cccc(OC)c3F)C[C@@H]21` | 1.695% | 5.556% |
| `COCCn1ccc2c(C(=O)O)cccc21` | 2.152% | -1.242% |
| `CCOc1no[n+]([O-])c1-c1ccccc1` | 4.988% | 3.077% |
| `CCOc1ccc(NC(=O)NCCS(=O)(=O)CC)cc1C` | -0.3822% | 6.077% |
| `CCCN1CCCn2nc(CNC(=O)CCc3scnc3C)cc2C1` | 10.13% | 3.252% |
| `CC(C)c1cc(C(=O)NCCc2nc(-c3cccnc3)n[nH]2)[nH]n1` | -7.506% | 0% |
| `CCN1CC(O)CN(C(=O)c2cccc(C(F)(F)F)c2)CC1=O` (centres unmarked) | 2.179% | 4.494% |
| `CCN1CCN(C(=O)Cn2ncc3c2c(C)nn3C(C)C)CC1` | -4.907% | 4.867% |
| `O=C(NC1CC1)c1ccnc(-c2cc(NCCO)nc3[nH]ccc23)c1` | -5.308% | 5.6% |
| `O=C1CCC(c2nc(C3CCN(C(=O)C4CC4)CC3)no2)N1` (centres unmarked) | 5.251% | 4.857% |
| `Cc1nnc(C2Cc3ccccc3CN2Cc2nc(C3CC3)no2)o1` (centres unmarked) | 0% | -5.641% |
| `O=C(Cc1cccs1)Nc1cnn(C2CCOC2)c1` (centres unmarked) | 4.962% | 4.327% |
| `CCn1nnc2c1C(COCCN(C)C)CN(S(C)(=O)=O)C2` (centres unmarked) | -4.863% | 8.602% |
| `Cc1oc(-c2nc(C#N)c(NC(C)C)o2)cc1S(=O)(=O)N1CCCCC1` | 1.01% | -4.094% |
| `CC(=O)N1C[C@H]2C3(CCN(S(C)(=O)=O)CC3)CC[C@@]2(C(=O)N(C)C)C1` | 0.4167% | 3.743% |
| `CC(C)COCC1CN(Cc2ccoc2)Cc2ncn(C)c21` (centres unmarked) | 0.1318% | 9% |
| `CC(=O)N1CCC(c2cncc(N3CCCCCC3)n2)CC1` | 1.595% | 2.326% |
| `N#Cc1c(F)cccc1N1CCC(C(=O)Nc2nccs2)CC1` | 5.725% | 16.83% |
| `Cc1ccc(C)c(OCCN(C)C(=O)CCc2cn[nH]c2)c1` | 1.555% | 3.863% |
| `Cc1cc(F)ccc1S(=O)(=O)NCc1[nH]ncc1Br` | 8.884% | 7.937% |
| `Cc1cnn(CC2CCCN2C(=O)CCc2ccco2)c1` (centres unmarked) | -11.46% | 12% |
| `Cc1ccnc(N2CCN(C3CCS(=O)(=O)C3)CC2)n1` (centres unmarked) | -0.9153% | 2.762% |
| `CC(C)c1cc(CNC(=O)Nc2cc(F)cc(N3CCCC3)c2)on1` | -0.9756% | -0.9804% |
| `CC(=O)NC1CCCN(C(=O)NCc2cc[nH]n2)C1` (centres unmarked) | 4.981% | 0% |
| `COCCNC(=O)NCc1ccc(-n2ccc(C(F)(F)F)n2)cc1` | 2.187% | 3.704% |

The last 9 entries again:

With CC(=O)N1CCC(c2cncc(N3CCCCCC3)n2)CC1 the screen gave A: 1.595%; B: 2.326%.
With N#Cc1c(F)cccc1N1CCC(C(=O)Nc2nccs2)CC1 the screen gave A: 5.725%; B: 16.83%.
With Cc1ccc(C)c(OCCN(C)C(=O)CCc2cn[nH]c2)c1 the screen gave A: 1.555%; B: 3.863%.
With Cc1cc(F)ccc1S(=O)(=O)NCc1[nH]ncc1Br the screen gave A: 8.884%; B: 7.937%.
With Cc1cnn(CC2CCCN2C(=O)CCc2ccco2)c1 (centres unmarked) the screen gave A: -11.46%; B: 12%.
With Cc1ccnc(N2CCN(C3CCS(=O)(=O)C3)CC2)n1 (centres unmarked) the screen gave A: -0.9153%; B: 2.762%.
With CC(C)c1cc(CNC(=O)Nc2cc(F)cc(N3CCCC3)c2)on1 the screen gave A: -0.9756%; B: -0.9804%.
With CC(=O)NC1CCCN(C(=O)NCc2cc[nH]n2)C1 (centres unmarked) the screen gave A: 4.981%; B: 0%.
With COCCNC(=O)NCc1ccc(-n2ccc(C(F)(F)F)n2)cc1 the screen gave A: 2.187%; B: 3.704%.